Experimental findings from PMC9709245, “The stem region of α1,6-fucosyltransferase FUT8 is required for multimer formation but not catalytic activity” (The Journal of Biological Chemistry, 2022) are described below.

Results are given in words; binding and its absence hold for the method and conditions named. Binding seen in cells or lysates may run through a third protein. Binding can be weak; no strength is given.

The assay has as its target T1, alpha-1,6-fucosyltransferase FUT8 WT (human, UniProt Q9BYC5 1-575).
T1 construct: No chain bears both Myc and 3xFLAG; also called Myc-FUT8; Myc-tagged FUT8; source: HEK293 FUT8KO, transfected, in lysate; not shown: Myc (copy from pcDNA6-mycHisA), C-terminal, kept; His tag (from the vector pcDNA6-mycHisA); 3xFLAG (other copy; from pME-3xFLAG), C-terminal, kept
T1 sequence (looked up): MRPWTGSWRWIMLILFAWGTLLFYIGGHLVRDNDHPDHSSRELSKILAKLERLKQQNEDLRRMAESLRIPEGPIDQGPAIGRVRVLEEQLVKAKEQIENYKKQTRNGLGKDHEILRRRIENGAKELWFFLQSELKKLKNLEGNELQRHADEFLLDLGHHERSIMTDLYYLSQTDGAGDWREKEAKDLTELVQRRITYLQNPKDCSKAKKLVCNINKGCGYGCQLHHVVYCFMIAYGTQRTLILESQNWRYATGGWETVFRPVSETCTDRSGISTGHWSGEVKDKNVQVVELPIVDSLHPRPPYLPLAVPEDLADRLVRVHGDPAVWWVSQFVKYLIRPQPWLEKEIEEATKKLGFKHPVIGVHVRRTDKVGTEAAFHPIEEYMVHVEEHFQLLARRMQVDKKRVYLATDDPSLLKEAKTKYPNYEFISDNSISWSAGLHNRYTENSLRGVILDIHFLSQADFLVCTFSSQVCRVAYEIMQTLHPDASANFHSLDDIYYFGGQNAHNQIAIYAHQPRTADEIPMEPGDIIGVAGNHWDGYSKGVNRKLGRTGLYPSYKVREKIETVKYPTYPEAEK
Briefly: co-IP; lysates (TBS, 1% Triton X-100) of HEK293 FUT8KO cells coexpressing Myc-tagged FUT8 WT or mutant with 3xFLAG-FUT8 WT; anti-DYKDDDDK antibody magnetic beads, 4 °C overnight; anti-Myc blot; IP signal divided by input, relative to FUT8 WT.

FUT8ΔSH3 (from UniProt Q9BYC5) (enzyme): the binding result was “binds”.
